Experimental data published in patent publication US20250270306A1 (OSPEDALE SAN RAFFAELE S R L, published 2025).
These are yes or no findings as the source states them, for the method shown. Some entries that bind do so weakly or less than the wild type.

Amino acid sequences for entries named in this document (tags omitted). Residues count along the entry.
UniProt P47878, residues 28-292: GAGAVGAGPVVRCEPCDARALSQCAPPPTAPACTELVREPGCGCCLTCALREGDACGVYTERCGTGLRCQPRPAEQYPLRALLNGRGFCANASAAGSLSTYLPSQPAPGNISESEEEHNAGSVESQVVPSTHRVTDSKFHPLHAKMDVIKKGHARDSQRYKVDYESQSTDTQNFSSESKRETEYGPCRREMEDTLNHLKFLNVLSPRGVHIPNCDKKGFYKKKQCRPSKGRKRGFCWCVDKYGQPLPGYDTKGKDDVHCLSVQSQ

B1: YU139-C01 (Fc fusion)
VH: QVQLVQSGAEVKKPGASVKVSCKASGYTFTSYGISWVRQAPGQGLEWMGWINTYNGNTNYAQKLQGRVTMTTDTSTTTAYMELRSLRSDDTAVYYCARDIGYSGSYYSPYYYYGMDVWGQGTTVTVSS
VL: SSELTQDPAVSVALGQTVRITCQGDGLRNYFASWYQQKPGQAPVLVIYGKNNRPSGIPDRFSGSSSGNTASLRIAGAQAEDEADYYCNSRDGSGKHLVFGGGTKLTV
notes: The format used in the Octet assay is not restated (captured via Fc); also called Yu139-CO1
B2: YU139-G03 (Fc fusion)
VH: QVQLQQSGAEVKKPGSSVKVSCKASGGIFSTYVTSWVRQAPGQGLEWMGGIIPMFDTTEYAQKLEGRVTITVDESTNTAYMELSSLRFEDTAVYYCARAGGLSHFDYWGQGTLVTVSS
VL: EIVLTQSPLSLPVTPGEPASISCRSSQSLLHSNGNNYLNWYLQKPGQSPQLLIYLSSRRASGVPDRFSGSGSGTDFTLKISRVEAEDVGVYYCMQGLQTPWTFGQGTKVETK
B3: YU139-A03 (Fc fusion)
VH: QVQLVQSGGGVVQPGRSLRLSCAASGFTFSSYGIHWVRQAPGKGLEWVAIVSYDGRHKYYADSVKGRFTISRDDSKNTIYLQMDSLRAEDTAVYYCAKDSGNSGLEGIHDYWGQGTLVTVSS
VL: DVVMTQSPSSVSASVGDRVTITCRASQGISSWLAWYQQKPGKAPKLLIYAASSLQSGVPSRFSGSGSGTDFTLTISSLQPEDFGTYYCQQANSFPLTFGGGTKVEIK
notes: The format used in the Octet assay is not restated (captured via Fc)
B4: YU139-H03 (Fc fusion)
VH: QVQLVQSGAEVKKPGASVKVSCKASGYTFTSYGISWVRQAPGQGLEWMGWISAYNGNTNYAQKLQGRVTMTTDTSTSTAYMELRSLRSDDTAVYYCARVKWELGWAFDIWGQGTMVTVSS
VL: QAVLTQPPSVSGAPGQRVTISCTGSSSNIGAGYDVHWYQQLPGTAPKLLIYGNSNRPSGVPDRFSGSKSGTSAPLAITGLQAEDEADYYCQSYDSSLSTVFGGGTKLTVL
notes: as for B3

Tests used:
mouse IGFBP3 [1] = target: T1, mouse IGFBP3 (mouse, UniProt P47878 28-292, limits assumed); assay: BLI (Octet/BLItz)
T1 construct: Bought protein; also called mIGFBP-3; murine IGFBP3

mouse IGFBP3 [2] = target: T1, mouse IGFBP3; assay: BLI (Octet/BLItz), antibody captured via Fc on AHC biosensor; BLI, KD on mIGFBP-3 above the limit of 10^-6 M

Binder | binding (mouse IGFBP3 [1]) | binding (mouse IGFBP3 [2])
B1 | binds | 
B2 | binds | 
B3 | binds | 
B4 |  | no binding (tested: 10^-6 M)
